Among the data in PubChem BioAssay AID248 (DTP/NCI, 2004) are T/C values, retold here.

The experiment relates to L1210 leukemia ip in BDF1 mice, survival T/C. Put plainly: NCI In Vivo Anticancer Drug Screen. Data for tumor model L1210 Leukemia (intraperitoneal) in B6D2F1 (BDF1) mice. As to conditions: T/C endpoint: mean survival time, higher T/C = longer survival.
Setting [1] is: dose: 100.0 mg/kg/injection, schedule: Q01DX001 (ip), vehicle: Klucel (hydroxypropylcellulose) (HPC).
Where [2] appears, read: dose: 200.0 mg/kg/injection, schedule: Q01DX001 (ip), vehicle: Klucel (hydroxypropylcellulose) (HPC).

The list does not hold the whole screen: it gathers some chemical classes. Not every dose and run of a compound is shown. T/C is the treated group as % of the vehicle group. Where survival is the endpoint, the PubChem record calls one and a half times the control and up active, and a quarter to a half above the control has no call in these data; cut-offs in other NCI protocols can differ. Some entries show no survivor count and are marked so; the dose need not have been tolerated. Schedules are NCI's codes, taken here to give the interval after Q, in days (D) or hours (H), and the number of doses after X. Some entries were tested several times; the results are listed from low to high. Some schedule codes hold Z or #, which are not explained here.

For `Cc1ccc(CN2C3CCCC2CC(OC(=O)C(O)(c2ccccc2)c2ccccc2)C3)cc1` (configuration not stated), the T/C by setting is: under setting [1], 98 % of control [survivor count not shown]; under setting [2], 96 % of control [survivor count not shown].
With `OC1(C#CCN(CCCl)CCCl)CCCCC1`, the T/C reads like this: (dose: 2.5 mg/kg/injection, schedule: Q01DX009 (ip), vehicle: saline) 110 % of control [survivor count not shown]; (dose: 5.0 mg/kg/injection, schedule: Q01DX009 (ip), vehicle: saline) 136 % of control [survivor count not shown].
As to `ClCCNCCCCNCCCl`, the T/C reads like this: (dose: 2.5 mg/kg/injection, schedule: Q#A X034 (ip), vehicle: saline) 104 % of control [survivor count not shown]; (dose: 5.0 mg/kg/injection, schedule: Q01DX017 (ip), vehicle: saline) 101 % of control [survivor count not shown]; (dose: 5.0 mg/kg/injection, schedule: Q#A X034 (ip), vehicle: saline) 112 % of control [survivor count not shown]; (dose: 10.0 mg/kg/injection, schedule: Q01DX017 (ip), vehicle: saline) 113 % of control [survivor count not shown]; (dose: 10.0 mg/kg/injection, schedule: Q02DX009 (ip), vehicle: saline) 106 % of control [survivor count not shown]; (dose: 10.0 mg/kg/injection, schedule: Q#A X034 (ip), vehicle: saline) 126 % of control [survivor count not shown]. For the same molecule, the T/C was 113 % of control [survivor count not shown] (dose: 11.0 mg/kg/injection, schedule: Q01DX Z (ip), vehicle: saline); 130 % of control [survivor count not shown] (dose: 17.0 mg/kg/injection, schedule: Q01DX Z (ip), vehicle: saline); 184 % of control [survivor count not shown] (dose: 20.0 mg/kg/injection, schedule: Q01DX017 (ip), vehicle: saline); 119 % of control [survivor count not shown] (dose: 20.0 mg/kg/injection, schedule: Q02DX009 (ip), vehicle: saline); 147 % of control [survivor count not shown] (dose: 20.0 mg/kg/injection, schedule: Q#A X034 (ip), vehicle: saline); 133 [survivor count not shown], 138 [survivor count not shown], 142 % of control [survivor count not shown] (dose: 25.0 mg/kg/injection, schedule: Q01DX Z (ip), vehicle: saline). The T/C was 148 [survivor count not shown], 163 [survivor count not shown], 170 % of control [survivor count not shown] (dose: 37.0 mg/kg/injection, schedule: Q01DX Z (ip), vehicle: saline); 150 % of control [survivor count not shown] (dose: 40.0 mg/kg/injection, schedule: Q01DX017 (ip), vehicle: saline); 138 % of control [survivor count not shown] (dose: 40.0 mg/kg/injection, schedule: Q02DX009 (ip), vehicle: saline); 97 % of control [survivor count not shown] (dose: 40.0 mg/kg/injection, schedule: Q#A X034 (ip), vehicle: saline); 135 % of control [survivor count not shown] (dose: 50.0 mg/kg/injection, schedule: Q01DX001 (ip), vehicle: saline); 144 % of control [survivor count not shown] (dose: 55.0 mg/kg/injection, schedule: Q01DX Z (ip), vehicle: saline). In addition, the T/C was 97 [survivor count not shown] and 172 % of control [survivor count not shown] (dose: 56.0 mg/kg/injection, schedule: Q01DX Z (ip), vehicle: saline); 117 % of control [survivor count not shown] (dose: 80.0 mg/kg/injection, schedule: Q01DX017 (ip), vehicle: saline); 136 % of control [survivor count not shown] (dose: 80.0 mg/kg/injection, schedule: Q02DX009 (ip), vehicle: saline); 93 [survivor count not shown], 127 [survivor count not shown], 155 % of control [survivor count not shown] (dose: 84.0 mg/kg/injection, schedule: Q01DX Z (ip), vehicle: saline); 137 % of control [survivor count not shown] (dose: 100.0 mg/kg/injection, schedule: Q01DX001 (ip), vehicle: saline); 100 % of control [survivor count not shown] (dose: 125.0 mg/kg/injection, schedule: Q01DX Z (ip), vehicle: saline). Also, the T/C (dose: 160.0 mg/kg/injection, schedule: Q02DX009 (ip), vehicle: saline) is 100 % of control [survivor count not shown] and the T/C (dose: 200.0 mg/kg/injection, schedule: Q01DX001 (ip), vehicle: saline) was 164 % of control [survivor count not shown].
In the case of `CCCCCN(CCCl)CCCl`, the T/C (dose: 12.5 mg/kg/injection, schedule: Q01DX001 (ip), vehicle: saline) was 122 % of control [survivor count not shown] and the T/C (dose: 25.0 mg/kg/injection, schedule: Q01DX001 (ip), vehicle: saline) was 90 % of control [survivor count not shown].
For the molecule `ClCCN(CC#Cc1ccccc1)CCCl`, the T/C is 105 % of control [survivor count not shown] (dose: 75.0 mg/kg/injection, schedule: Q01DX001 (sc), vehicle: saline); 113 % of control [survivor count not shown] (dose: 150.0 mg/kg/injection, schedule: Q01DX001 (sc), vehicle: saline); 123 % of control [survivor count not shown] (dose: 300.0 mg/kg/injection, schedule: Q01DX001 (sc), vehicle: saline).
`CC(COC(=O)C(O)(c1ccccc1)c1ccccc1)N(C1CCCC1)C1CCCC1` (configuration not stated): the T/C (dose: 100.0 mg/kg/injection, schedule: Q04DX003 (ip), vehicle: saline with Tween-80) was 96 % of control [survivor count not shown]; the T/C (dose: 200.0 mg/kg/injection, schedule: Q04DX003 (ip), vehicle: saline with Tween-80) is 96 % of control [survivor count not shown]; the T/C (dose: 400.0 mg/kg/injection, schedule: Q04DX003 (ip), vehicle: saline with Tween-80) was 105 % of control [survivor count not shown].
In the case of `Cc1cc(C)cc(CN(CCCl)CCCl)c1`, the T/C (dose: 3.13 mg/kg/injection, schedule: Q01DX009 (ip), vehicle: saline) was 115 [survivor count not shown] and 120 % of control [survivor count not shown]; the T/C (dose: 6.25 mg/kg/injection, schedule: Q01DX009 (ip), vehicle: saline) was 122 [survivor count not shown] and 123 % of control [survivor count not shown]; the T/C (dose: 6.25 mg/kg/injection, schedule: Q04DX003 (ip), vehicle: saline) is 100 % of control [survivor count not shown]; the T/C (dose: 12.5 mg/kg/injection, schedule: Q01DX009 (ip), vehicle: saline) was 124 % of control [survivor count not shown]; the T/C (dose: 12.5 mg/kg/injection, schedule: Q04DX003 (ip), vehicle: saline) was 113 % of control [survivor count not shown]; the T/C (dose: 25.0 mg/kg/injection, schedule: Q04DX003 (ip), vehicle: saline) was 110 % of control [survivor count not shown].
With `O=C(OC1CC2CCCC(C1)N2Cc1ccccc1)C(O)(c1ccccc1)c1ccccc1` (configuration not stated), the T/C reads like this: under setting [1], 101 % of control [survivor count not shown]; under setting [2], 97 % of control [survivor count not shown]; (dose: 400.0 mg/kg/injection, schedule: Q01DX001 (ip), vehicle: Klucel (hydroxypropylcellulose) (HPC)) 92 % of control [survivor count not shown].
